Experimental data published in ChEMBL document CHEMBL1687827, “Profiling the Aspergillus fumigatus proteome in response to caspofungin” (2011).
The source gives many values for each of these; only a part stands here.

Key:
Assay type in all cases: functional
Aspergillus fumigatus [1] = assay: Induction of change in extracellular serine-rich protein, putative protein level in iTRAQ-118 labelled cell wall fraction of drug-susceptible Aspergillus fumigatus KU80 delta-akuB at 0.12 ug/ml after 24 hrs in YPD medium by MS (MS/MS) analysis relative to control
Aspergillus fumigatus [2] = assay: Induction of change in ribosomal protein L35, putative protein level in iTRAQ114 labelled cell wall fraction of drug-susceptible Aspergillus fumigatus KU80 delta-akuB at 0.12 ug/ml after 24 hrs in YPD medium by MS (MS/MS) analysis relative to control
Aspergillus fumigatus [3] = assay: Induction of change in FKBP-type peptidyl-prolyl isomerase, putative protein level in iTRAQ-116 labelled secreted fraction of drug-resistant Aspergillus fumigatus EMFR-S678P at 0.12 ug/ml after 48 hrs in YPD medium by MS (MS/MS) analysis relative to control
Aspergillus fumigatus [4] = assay: Induction of change in 40S ribosomal protein S8e protein level in iTRAQ-118 labelled cell wall fraction of drug-susceptible Aspergillus fumigatus KU80 delta-akuB at 0.12 ug/ml after 24 hrs in YPD medium by MS (MS/MS) analysis relative to control
Aspergillus fumigatus [5] = assay: Induction of change in NAD-dependent formate dehydrogenase protein level in iTRAQ-116 labelled secreted fraction of drug-susceptible Aspergillus fumigatus KU80 delta-akuB at 0.12 ug/ml after 48 hrs in YPD medium by MS (MS/MS) analysis relative to control
Aspergillus fumigatus [6] = assay: Induction of change in major allergen and cytotoxin AspF1 protein level in iTRAQ-116 labelled secreted fraction of drug-resistant Aspergillus fumigatus EMFR-S678P at 0.12 ug/ml after 48 hrs in YPD medium by MS (MS/MS) analysis relative to control
Aspergillus fumigatus [7] = assay: Induction of change in 60s ribosomal protein l2 protein level in iTRAQ114 labelled secreted fraction of drug-susceptible Aspergillus fumigatus KU80 delta-akuB at 0.12 ug/ml after 24 hrs in YPD medium by MS (MS/MS) analysis relative to control
Aspergillus fumigatus [8] = assay: Induction of change in 40s ribosomal protein s11 protein level in iTRAQ114 labelled cell wall fraction of drug-susceptible Aspergillus fumigatus KU80 delta-akuB at 0.12 ug/ml after 24 hrs in YPD medium by MS (MS/MS) analysis relative to control
Aspergillus fumigatus [9] = assay: Induction of change in hypothetical gene locus AFUA_6G00740 expression in drug-susceptible Aspergillus fumigatus KU80 delta-akuB at 0.12 ug/ml after 24 hrs in YPD medium by microarray analysis relative to control
Aspergillus fumigatus [10] = assay: Induction of change in aconitate hydratase, mitochondrial protein level in iTRAQ-116 labelled cell wall fraction of drug-susceptible Aspergillus fumigatus KU80 delta-akuB at 0.12 ug/ml after 48 hrs in YPD medium by MS (MS/MS) analysis relative to control
Aspergillus fumigatus [11] = assay: Induction of change in ribosomal protein L34 protein, putative protein level in iTRAQ-118 labelled cell wall fraction of drug-susceptible Aspergillus fumigatus KU80 delta-akuB at 0.12 ug/ml after 24 hrs in YPD medium by MS (MS/MS) analysis relative to control
Aspergillus fumigatus [12] = assay: Induction of change in conserved hypothetical gene expression in drug-susceptible Aspergillus fumigatus KU80 delta-akuB at 0.12 ug/ml after 48 hrs in YPD medium by microarray analysis relative to control
Aspergillus fumigatus [13] = assay: Induction of change in SUN domain protein (Uth1), putative protein level in iTRAQ-118 labelled cell wall fraction of drug-susceptible Aspergillus fumigatus KU80 delta-akuB at 0.12 ug/ml after 24 hrs in YPD medium by MS (MS/MS) analysis relative to control
Aspergillus fumigatus [14] = assay: Induction of change in Eukaryotic translation initiation factor eIF-5A protein level in iTRAQ-118 labelled cell wall fraction of drug-susceptible Aspergillus fumigatus KU80 delta-akuB at 0.12 ug/ml after 24 hrs in YPD medium by MS (MS/MS) analysis relative to control
Aspergillus fumigatus [15] = assay: Induction of change in allergen Asp F3 protein level in iTRAQ-116 labelled secreted fraction of drug-susceptible Aspergillus fumigatus KU80 delta-akuB at 0.12 ug/ml after 48 hrs in YPD medium by MS (MS/MS) analysis relative to control
Aspergillus fumigatus [16] = assay: Induction of change in Eukaryotic translation initiation factor eIF-5A protein level in iTRAQ-118 labelled cell wall fraction of drug-resistant Aspergillus fumigatus EMFR-S678P at 0.12 ug/ml after 24 hrs in YPD medium by MS (MS/MS) analysis relative to control
Aspergillus fumigatus [17] = assay: Induction of change in Hsp90 binding co-chaperone (Sba1), putative protein level in iTRAQ-116 labelled secreted fraction of drug-susceptible Aspergillus fumigatus KU80 delta-akuB at 0.12 ug/ml after 48 hrs in YPD medium by MS (MS/MS) analysis relative to control
Aspergillus fumigatus [18] = assay: Induction of change in transaldolase protein level in iTRAQ-116 labelled secreted fraction of drug-susceptible Aspergillus fumigatus KU80 delta-akuB at 0.12 ug/ml after 48 hrs in YPD medium by MS (MS/MS) analysis relative to control
Aspergillus fumigatus [19] = assay: Induction of change in citrate synthase Cit1, putative protein level in iTRAQ-116 labelled secreted fraction of drug-susceptible Aspergillus fumigatus KU80 delta-akuB at 0.12 ug/ml after 48 hrs in YPD medium by MS (MS/MS) analysis relative to control
Aspergillus fumigatus [20] = assay: Induction of change in cytochrome c oxidase subunit Va, putative protein level in iTRAQ-118 labelled cell wall fraction of drug-resistant Aspergillus fumigatus EMFR-S678P at 0.12 ug/ml after 24 hrs in YPD medium by MS (MS/MS) analysis relative to control
Aspergillus fumigatus [21] = assay: Induction of change in tripeptidyl-peptidase (TppA), putative protein level in iTRAQ-118 labelled cell wall fraction of drug-resistant Aspergillus fumigatus EMFR-S678P at 0.12 ug/ml after 24 hrs in YPD medium by MS (MS/MS) analysis relative to control
Aspergillus fumigatus [22] = assay: Induction of change in ribosomal protein L26 protein level in iTRAQ-116 labelled secreted fraction of drug-susceptible Aspergillus fumigatus KU80 delta-akuB at 0.12 ug/ml after 48 hrs in YPD medium by MS (MS/MS) analysis relative to control
Aspergillus fumigatus [23] = assay: Induction of change in phosphoglycerate kinase PgkA, putative protein level in iTRAQ-116 labelled secreted fraction of drug-resistant Aspergillus fumigatus EMFR-S678P at 0.12 ug/ml after 48 hrs in YPD medium by MS (MS/MS) analysis relative to control
Aspergillus fumigatus [24] = assay: Induction of change in mitochondrial hypoxia responsive domain protein level in iTRAQ-116 labelled secreted fraction of drug-susceptible Aspergillus fumigatus KU80 delta-akuB at 0.12 ug/ml after 48 hrs in YPD medium by MS (MS/MS) analysis relative to control

## CC[C@H](C)C[C@H](C)CCCCCCCCC(=O)N[C@H]1C[C@@H](O)[C@@H](NCCN)NC(=O)[C@@H]2[C@@H](O)CCN2C(=O)[C@H]([C@H](O)CCN)NC(=O)[C@H]([C@H](O)[C@@H](O)c2ccc(O)cc2)NC(=O)[C@@H]2C[C@@H](O)CN2C(=O)[C@H]([C@@H](C)O)NC1=O [CASPOFUNGIN]
Aspergillus fumigatus [1]
  fold change (FC): 2.1
Aspergillus fumigatus [2]
  fold change (FC): 1.7
Aspergillus fumigatus [3]
  fold change (FC): -1.32
Aspergillus fumigatus [4]
  fold change (FC): 2.8
Aspergillus fumigatus [5]
  fold change (FC): -1.6
Aspergillus fumigatus [6]
  fold change (FC): -1.15
Aspergillus fumigatus [7]
  fold change (FC): -1.1
Aspergillus fumigatus [8]
  fold change (FC): 2
Aspergillus fumigatus [9]
  fold change (FC): -9
Aspergillus fumigatus [10]
  fold change (FC): 1.2
Aspergillus fumigatus [11]
  fold change (FC): 2.8
Aspergillus fumigatus [12]
  fold change (FC): 3.9
Aspergillus fumigatus [13]
  fold change (FC): -3
Aspergillus fumigatus [14]
  fold change (FC): -2
Aspergillus fumigatus [15]
  fold change (FC): 3.5
Aspergillus fumigatus [16]
  fold change (FC): -1.32
Aspergillus fumigatus [17]
  fold change (FC): -2.1
Aspergillus fumigatus [18]
  fold change (FC): 3.2
Aspergillus fumigatus [19]
  fold change (FC): -13.9
Aspergillus fumigatus [20]
  fold change (FC): -1.07
Aspergillus fumigatus [21]
  fold change (FC): -1.07
Aspergillus fumigatus [22]
  fold change (FC): 2.1
Aspergillus fumigatus [23]
  fold change (FC): -1.07
Aspergillus fumigatus [24]
  fold change (FC): >-16
